# The campaign covered roughly 220,000 compounds. About 2,400 (1.1%) were called active. The shares of active, inactive and inconclusive entries below differ from those in the screen. Calls follow the shape of the dose curve; as a rule, active = well fitted inhibition curve with a large enough effect; inconclusive = small, poorly fitted or top-dose-only effect, or effect the other way; inactive = no such curve, though single readings can be large or run the other way. A potency beside an inconclusive call is a rough fit, not a confirmed value.
# Test: qHTS Multiplex Assay to Identify Dual Action Probes in a Cell Model of Huntington: Aggregate Formation (GFP); also: nearly all actives have a fitted effect of over 60% in size
# Conditions: PC12 HttQ103-GFP aggregates, Acumen cytometry, 40 h; activity change, negative = inhibition: at 46.1 µM (top of the series) unless noted
# In short: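 Aggregate formation scored by laser-scanning cytometer (488 excitation, 500–530 emission) in lysed PC12 cells expressing Q103-GFP after 100 nM tebufenozide induction; library tested in dose series, with ATPLite reagent added in the multiplex.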
# % is scaled to controls: 0 for no effect and ±100 for the full control effect; potency is read from the fitted curve at half-maximal effect.
Structure (SMILES),Potency,"activity change, negative = inhibition"
O=C(c1cnn(C(=O)c2cccc(S(=O)(=O)N3CCOCC3)c2)c1)c1ccccc1O,inactive,
CCOc1ccc(-c2csc(/C(C#N)=C\c3ccc(O)c([N+](=O)[O-])c3)n2)cc1,active: 7.94 µM,
COc1ccc(OCC(=O)N/N=C/c2ccc(OC)c(OC)c2C(=O)O)cc1,"inconclusive: 20 µM [activator, single point]",
O=C(c1ccc([N+](=O)[O-])cc1)N(Cc1ccc(Cl)cc1Cl)N1C(=O)CCCC1=O,"inconclusive: 3.55 µM [activator, partial curve]",
Cc1ccccc1NC1=C/C(=N\S(=O)(=O)c2cccs2)c2ccccc2C1=O,active: 1.41 µM,
COCCN(C(=O)Cn1nnc2ccccc21)C(C(=O)NC1CCCC1)c1ccc(OC)cc1OC (configuration not stated),inactive,
COc1ccc(C2CC(c3ccccc3)=NN2C(=S)Nc2ccccc2)cc1 (configuration not stated),"inconclusive: 4.47 µM [activator, full curve, poor fit]",
Cc1[nH]nc(-c2ccc(O)cc2O)c1Oc1ccccc1,"inconclusive: 28.2 µM [inhibitor, single point]",
CCS(=O)(=O)c1ccc(N=Nc2ccc(O)c3ncccc23)c(OC)c1,"inconclusive: 6.31 µM [inhibitor, partial curve]",
O=C(COc1ccccc1)NC(=S)Nc1ccc2c3c(cccc13)CC2,inactive,
CCc1cccc(CC)c1NC(=O)CSc1nc2ccc(N3C(=O)C4C5C=CC(C5)C4C3=O)cc2s1 (configuration not stated),inactive,
Cc1onc(-c2c(F)cccc2Cl)c1C(=O)Nc1sc2c(c1C(N)=O)CCC2,"inconclusive: 14.1 µM [inhibitor, single point]",
CC(Nc1nc(N2CCNCC2)nc2ccccc12)c1ccccc1 (configuration not stated),inactive,
N#C/C(=N\Nc1cccc(Cl)c1)C(=O)c1ccccc1,active: 3.55 µM,
Brc1ccc(C2=Nn3c(nnc3-c3n[nH]c4c3CCC4)SC2)cc1,"inconclusive: 7.94 µM [activator, partial curve]",
CCOC(=O)c1sc2nc3c(cc2c1N)COC(C)(CC)C3 (configuration not stated),inactive,
CN(C(=O)CCc1nc2ccccc2s1)c1ccccc1,inactive,
COc1ccccc1C1C(C#N)=C(N)Oc2c1c(-c1ccccc1)nn2-c1ccccc1 (configuration not stated),"inconclusive: 35.5 µM [inhibitor, single point]",
CCc1cc2c(=O)c(-c3ccc4c(c3)OCCO4)coc2c(CN2CCCCC2C)c1O (configuration not stated),"inconclusive: 3.98 µM [inhibitor, partial curve]",
CC1=NNC(=O)C1CCC(=O)N/N=C/c1ccccc1 (configuration not stated),,inactive: -12.2% [at 9.22 µM]
COC(=O)CN(C)C(=O)CC1C(=O)NCCN1CC(C)(C)C (configuration not stated),"inconclusive: 1.26 µM [activator, single point]",
O=C(COc1ccc(S(=O)(=O)NC2CCCCC2)cc1Cl)N1CCN(c2ccccc2)CC1,"inconclusive: 22.4 µM [inhibitor, single point]",
COc1cccc(N2CCN(C(=O)CCCCCNc3nc(=S)[nH]c4ccccc34)CC2)c1,"inconclusive: 14.1 µM [inhibitor, single point]",
CCC(c1nnc(SCC(=O)Nc2ccc(Cl)cc2C(F)(F)F)n1C1CCCCC1)N(C)C (configuration not stated),"inconclusive: 35.5 µM [activator, single point]",

# Exported as tab-separated lines: three of the compounds above
Structure (SMILES)	Potency	activity change, negative = inhibition
COc1ccc(C2CC(c3ccccc3)=NN2C(=S)Nc2ccccc2)cc1 (configuration not stated)	inconclusive: 4.47 µM [activator, full curve, poor fit]	
COc1cccc(N2CCN(C(=O)CCCCCNc3nc(=S)[nH]c4ccccc34)CC2)c1	inconclusive: 14.1 µM [inhibitor, single point]	
CCC(c1nnc(SCC(=O)Nc2ccc(Cl)cc2C(F)(F)F)n1C1CCCCC1)N(C)C (configuration not stated)	inconclusive: 35.5 µM [activator, single point]	

# The results go on.

Structure (SMILES),Potency,"activity change, negative = inhibition"
COc1cccc(/C=C/C(=O)NCCc2ccc(OC)c(OC)c2)c1,"inconclusive: 0.891 µM [inhibitor, single point]",
COc1ccc(CCNc2cc(-c3ccccc3)nc3ncnn23)cc1,inactive,
CCCCN=C1NN=C(c2cc3ccccc3o2)CS1,inactive,
O=C(c1c[nH]c2ccccc12)N1CCN(Cc2ccccc2)CC1,"inconclusive: 35.5 µM [inhibitor, single point]",
Cc1cccnc1NC(=O)Nc1ccccc1,"inconclusive: 0.282 µM [activator, full curve]",
Oc1cccc(NC(=S)N=Nc2c(O)[nH]c3ccccc23)c1,"inconclusive: 0.316 µM [activator, full curve, poor fit]",
CN(C1=NC(=O)C(CC(=O)O)S1)c1ccc(O)cc1 (configuration not stated),inactive,
CCOc1ccccc1NC(=O)CCN1CCN(S(=O)(=O)c2ccc(Br)cc2)CC1,"inconclusive: 17.8 µM [activator, single point]",
Clc1cccc(NCc2nnc(SCc3ccc(Cl)cc3Cl)o2)c1,"inconclusive: 22.4 µM [inhibitor, single point]",
CC(C)Sc1nc2c([nH]1)c(=N)ncn2Cc1ccccc1,"inconclusive: 10 µM [inhibitor, single point]",
Cn1ncc(N=Cc2ccccc2)c1C(N)=O,inactive,
C=CCn1c(N)cc(=O)nc1SCC(=O)Nc1ccc2ccccc2c1,inactive,
O=C(CC1(O)C(=O)Nc2cc(Cl)cc(Cl)c21)c1ccncc1 (configuration not stated),inactive,
Cc1cccc(N(C(=O)c2nsc(Cl)c2Cl)C(C(=O)NC2CCCC2)c2ccc(O)cc2)c1 (configuration not stated),"inconclusive: 3.55 µM [inhibitor, partial curve]",
CCOC1(OCC)C(c2ccc(Cl)cc2)C(C#N)(C#N)C1(OCC)OCC (configuration not stated),"inconclusive: 35.5 µM [inhibitor, single point]",
O=C(Nc1nc(=O)n(C(=O)C2CC2)s1)c1ccccc1,"inconclusive: 0.501 µM [activator, full curve, poor fit]",
COC(=O)c1c(-c2ccccc2Cl)noc1/C=C/N(C)C,inactive,
CCCCCCNC(=O)Nc1ccccc1,"inconclusive: 3.55 µM [inhibitor, partial curve]",
CCCCNC(=O)C(c1ccc(OCC(=O)OC)c(C(=O)OC)c1)N(CCc1c[nH]c2ccccc12)C(=O)CCCCCN1C(=O)NC(c2ccc(-c3ccccc3)cc2)C(C(=O)OCc2ccccc2)=C1C (configuration not stated),,inactive: -7.78% [at 9.22 µM]
N#Cc1nc(Cc2ccccc2)oc1NCCc1ccccc1,"inconclusive: 25.1 µM [inhibitor, single point]",
O=C(Oc1c(-c2ccccc2Cl)oc2ccccc2c1=O)c1ccc(Cl)cc1,"inconclusive: 11.2 µM [inhibitor, partial curve]",
CC(C)(C)C(=O)OCCNc1nc(-c2ccccc2)nc2ccccc12,inactive,
COC(=O)c1ccc(COc2ccccc2/C=N/NC(=O)c2cccnc2)cc1,"inconclusive: 2.51 µM [activator, partial curve]",
O=C(CN1CCOCC1)n1c2ccccc2c2ccccc21,active: 2.82 µM,

Structure (SMILES),Potency,"activity change, negative = inhibition"
COc1ccc(NC(=O)C(=S)NC2CCCCC2)cc1,inactive,
COc1ccccc1NS(=O)(=O)c1cc(NC(=O)C2CC2)ccc1N1CCOCC1,"inconclusive: 10 µM [activator, partial curve]",
CCn1nc(C)c(C(=O)Nc2cc(Oc3cc(C)cc(C)c3)cc([N+](=O)[O-])c2)c1C,"inconclusive: 14.1 µM [inhibitor, single point]",
Cc1ccc(CNC(=O)CS(=O)Cc2nc(-c3cccs3)oc2C)cc1 (configuration not stated),inactive,
Cc1cc(O)c(-c2cc(O)c(C)cc2O)cc1O,,inactive: 16.4% [at 9.22 µM]
COc1ccc(-c2cc3ccccc3n2CC(O)CN2CCOCC2)cc1 (configuration not stated),"inconclusive: 2.82 µM [inhibitor, partial curve]",
COc1ccc(C(=O)C[n+]2cn(C(F)F)c3ccccc32)c(F)c1,"inconclusive: 25.1 µM [inhibitor, single point]",
COc1ccc(NC(=O)Cn2nnc(C(N)=O)c2N)c(OC)c1,"inconclusive: 11.2 µM [inhibitor, partial curve, poor fit]",
Cc1ccc(C2C3=C(CCCC3=O)N=C3c4ccccc4C(=O)C32)cc1 (configuration not stated),inactive,
CCOc1cccc(NC(=O)C2CCCN(S(=O)(=O)c3ccc(OC)cc3)C2)c1 (configuration not stated),"inconclusive: 35.5 µM [inhibitor, single point]",
COc1cccc(CNc2nc3ccccc3n2CCN2CCCCC2)c1OC,active: 12.6 µM,
CCCCCCn1c(=O)[nH]c2nc3cc(N)ccc3nc2c1=O,"inconclusive: 3.16 µM [inhibitor, single point]",
Cc1cccc(-c2nnc(SCC#N)n2-c2cccc(Cl)c2)c1,inactive,
Cc1ccc(C(=O)Nc2nc(-c3ccccc3)c(-c3ccccc3)o2)cc1,"inconclusive: 7.94 µM [inhibitor, partial curve, poor fit]",
CCOC(=O)Nc1ccc2c(c1)OCO2,"inconclusive: 3.16 µM [inhibitor, partial curve]",
N#C/C(=N\Nc1cccc([N+](=O)[O-])c1)C(=O)c1ccc(Br)cc1,active: 1.78 µM,
Cc1nn(C)c(Nc2ccc(Br)cc2)c1Br,"inconclusive: 11.2 µM [inhibitor, single point]",
Clc1ccc(-c2nnc(CSc3nnc(-c4cccs4)n3Cc3ccccc3)o2)cc1,"inconclusive: 11.2 µM [inhibitor, partial curve]",
Cn1c(=O)c([N+](=O)[O-])c(-n2ccnc2)c2ccccc21,"inconclusive: 35.5 µM [inhibitor, single point]",
COc1ccc2sc(N3C(=O)C4CC=C(C)CC4C3=O)nc2c1 (configuration not stated),inactive,
COc1cccc(Nc2nc(-c3sc(NC(=O)c4ccco4)nc3C)cs2)c1,"inconclusive: 15.8 µM [inhibitor, single point]",
Cc1cc(F)ccc1S(=O)(=O)Nc1ccccc1C(=O)NCc1cccnc1,inactive,
Cc1ccc(C(=O)NC(=S)Nc2ccccc2C(F)(F)F)cc1C,inactive,
CCOC(=O)c1[nH]c(C)c(C(=O)N2CCc3ccccc32)c1C,"inconclusive: 3.16 µM [activator, single point]",

# — PubChem BioAssay AID1688 (National Center for Advancing Translational Sciences (NCATS), 2009)
